Reference: PubChem BioAssay AID1159578 (Peter MacCallum Cancer Centre, 2015)

- Aim: 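siRNA pools altering how lymphatic endothelial cells close a scratch wound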 (primary screen)
- System: human lymphatic endothelial cells
- Knock-down reagent: siRNA pool against human genes, 40 nM
- Time to read-out: 48 h after transfection
- Measurement: 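High-content imaging of dye-stained cells in a scratch assay measures filled wound area and nuclei per well; duplicate means given as ratio to mock and robust z-score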
- Scale: migration robust z-score: higher = faster migration into the scratch; migration relative to mock: higher = more scratch area covered than mock; nuclei per well: higher = more cells in the well
- Call rule: 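Pools averaging fewer than 3300 nuclei are never called; remaining pools count as changed when migration robust z lies outside -2 to 2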
- Meaning of the calls: active = migration changed; inactive = no migration change, or too few cells
Here is a random part of about 18,000 deposited reagents. In the full data, about 1,030 (5.7%) are marked active. 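Inactive calls also include pools with fewer than 3300 nuclei, whose migration was not assessed.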 Raw values are not corrected between plates. Entries without a mark were called inactive.

| gene knocked down | migration robust z-score | migration class with cell-count check | migration relative to mock | nuclei per well, duplicate mean |
| --- | --- | --- | --- | --- |
| LRRC3B (leucine rich repeat containing 3B) | 0.52 | migration z between -2 and 2; enough cells | 1.02 | 6991 |
| TRH (thyrotropin releasing hormone) | 0.15 | migration z between -2 and 2; enough cells | 0.93 | 5394 |
| CPNE3 (copine 3) | -0.26 | migration z between -2 and 2; enough cells | 0.76 | 4711 |
| UBC (ubiquitin C) | -3.62 | under 3300 nuclei; migration not judged | -0.05 | 1051 |
| HEATR6 (HEAT repeat containing 6) | 0.58 | migration z between -2 and 2; enough cells | 1.04 | 5476 |
| POLR3K (RNA polymerase III subunit K) | 0.3 | migration z between -2 and 2; enough cells | 0.96 | 5752 |
| ALPP (alkaline phosphatase, placental) | -1.42 | migration z between -2 and 2; enough cells | 0.53 | 3304 |
| SLC5A3 | 1.58 | migration z between -2 and 2; enough cells | 1.11 | 5552 |
| CRYAB (crystallin alpha B) | -0.78 | migration z between -2 and 2; enough cells | 0.68 | 5616 |
| NEUROD4 (neuronal differentiation 4) | 0.71 | migration z between -2 and 2; enough cells | 1.07 | 7224 |
| FBLN2 (fibulin 2) | -0.21 | migration z between -2 and 2; enough cells | 0.83 | 5430 |
| LYRM4 (LYR motif containing 4) | -1.94 | migration z between -2 and 2; enough cells | 0.38 | 6190 |
| ZNF347 (zinc finger protein 347) | -0.32 | migration z between -2 and 2; enough cells | 0.8 | 4328 |
| QRICH2 (glutamine rich 2) | 1.01 | migration z between -2 and 2; enough cells | 1.15 | 5690 |
| GDAP1 (ganglioside induced differentiation associated protein 1) | 1.33 | migration z between -2 and 2; enough cells | 1.06 | 6380 |
| TCTN3 (tectonic family member 3) | -0.05 | migration z between -2 and 2; enough cells | 0.87 | 4791 |
| PRSS38 (serine protease 38) | 0.08 | migration z between -2 and 2; enough cells | 0.82 | 5053 |
| NKX2-2 (NK2 homeobox 2) | 0.15 | migration z between -2 and 2; enough cells | 0.92 | 7335 |
| ATP5PF (ATP synthase peripheral stalk subunit F6) | -1.14 | migration z between -2 and 2; enough cells | 0.58 | 5630 |
| LRRC26 (leucine rich repeat containing 26) | 0.65 | migration z between -2 and 2; enough cells | 1.05 | 5506 |
| MCM4 (minichromosome maintenance complex component 4) | -0.52 | migration z between -2 and 2; enough cells | 0.7 | 5375 |
| SDF2 (stromal cell derived factor 2) | -0.68 | migration z between -2 and 2; enough cells | 0.71 | 5272 |
| GALNT1 (polypeptide N-acetylgalactosaminyltransferase 1) | -0.18 | migration z between -2 and 2; enough cells | 0.77 | 5420 |
| ABCA13 (ATP binding cassette subfamily A member 13) | 1.25 | migration z between -2 and 2; enough cells | 1.04 | 5676 |
| GTF2A2 (general transcription factor IIA subunit 2) | 0.34 | migration z between -2 and 2; enough cells | 0.87 | 5784 |
| BEST4 (bestrophin 4) | -0.62 | migration z between -2 and 2; enough cells | 0.72 | 7286 |
| RNASE4 (ribonuclease A family member 4) | 0.47 | migration z between -2 and 2; enough cells | 0.9 | 3850 |
| TDRKH (tudor and KH domain containing) | 0.7 | migration z between -2 and 2; enough cells | 1.06 | 6194 |
| CPED1 (cadherin like and PC-esterase domain containing 1) | 1.56 | migration z between -2 and 2; enough cells | 1.29 | 5312 |
| SLC25A5 | -0.2 | migration z between -2 and 2; enough cells | 0.76 | 7186 |
| GIN1 (gypsy retrotransposon integrase 1) | -0.11 | migration z between -2 and 2; enough cells | 0.86 | 4515 |
| FGFRL1 (fibroblast growth factor receptor like 1) | -0.68 | migration z between -2 and 2; enough cells | 0.68 | 4642 |
| RNF144A (ring finger protein 144A) | -0.08 | migration z between -2 and 2; enough cells | 0.79 | 5082 |
| NSUN5 (NOP2/Sun RNA methyltransferase 5) | 0.13 | migration z between -2 and 2; enough cells | 0.83 | 5744 |
| CTTNBP2NL (CTTNBP2 N-terminal like) | -1.69 | under 3300 nuclei; migration not judged | 0.44 | 1748 |
| PIAS3 (protein inhibitor of activated STAT 3) | 1.14 | migration z between -2 and 2; enough cells | 1.02 | 4972 |
| KYAT3 (kynurenine aminotransferase 3) | -0.42 | migration z between -2 and 2; enough cells | 0.72 | 5385 |
| TAF4 (TATA-box binding protein associated factor 4) | -0.18 | migration z between -2 and 2; enough cells | 0.77 | 5624 |
| KLHL24 (kelch like family member 24) | 2.73 (active) | migration z above 2; enough cells | 1.59 | 6938 |
| PCDHGC4 (protocadherin gamma subfamily C, 4) | -0.66 | migration z between -2 and 2; enough cells | 0.72 | 6632 |
| LRP12 (LDL receptor related protein 12) | -0.21 | migration z between -2 and 2; enough cells | 0.76 | 5202 |
| SLC39A4 | -0.31 | migration z between -2 and 2; enough cells | 0.74 | 6106 |
| KIT (KIT proto-oncogene, receptor tyrosine kinase) | 0.83 | migration z between -2 and 2; enough cells | 0.97 | 6857 |
| SI (sucrase-isomaltase) | -0.29 | migration z between -2 and 2; enough cells | 0.75 | 5206 |
| SNX13 (sorting nexin 13) | -0.7 | migration z between -2 and 2; enough cells | 0.7 | 5608 |
| DBI (diazepam binding inhibitor, acyl-CoA binding protein) | -0.99 | under 3300 nuclei; migration not judged | 0.62 | 1450 |
| VN1R10P (vomeronasal 1 receptor 10, pseudogene) | -0.34 | migration z between -2 and 2; enough cells | 0.74 | 6250 |
| HACL1 (2-hydroxyacyl-CoA lyase 1) | -0.39 | migration z between -2 and 2; enough cells | 0.73 | 4568 |
| ANKRD54 (ankyrin repeat domain 54) | -0.68 | migration z between -2 and 2; enough cells | 0.71 | 6453 |
| TKFC (triokinase and FMN cyclase) | -0.13 | migration z between -2 and 2; enough cells | 0.86 | 5315 |
| TMC3 (transmembrane channel like 3) | 0.28 | migration z between -2 and 2; enough cells | 0.96 | 6842 |
| ZNF488 (zinc finger protein 488) | -0.02 | migration z between -2 and 2; enough cells | 0.88 | 5088 |
| ACSBG1 (acyl-CoA synthetase bubblegum family member 1) | 0.25 | migration z between -2 and 2; enough cells | 0.95 | 7040 |
| RAB3GAP2 (RAB3 GTPase activating non-catalytic protein subunit 2) | -0.62 | migration z between -2 and 2; enough cells | 0.68 | 5358 |
| OLIG1 (oligodendrocyte transcription factor 1) | -0.55 | migration z between -2 and 2; enough cells | 0.75 | 5696 |
| FILIP1 (filamin A interacting protein 1) | -0.45 | migration z between -2 and 2; enough cells | 0.77 | 5150 |
| SPATA4 (spermatogenesis associated 4) | -0.2 | migration z between -2 and 2; enough cells | 0.83 | 5896 |

7 consecutive reagents from above, quoted:
| gene knocked down | migration robust z-score | migration class with cell-count check | migration relative to mock | nuclei per well, duplicate mean |
| --- | --- | --- | --- | --- |
| LRP12 (LDL receptor related protein 12) | -0.21 | migration z between -2 and 2; enough cells | 0.76 | 5202 |
| SLC39A4 | -0.31 | migration z between -2 and 2; enough cells | 0.74 | 6106 |
| KIT (KIT proto-oncogene, receptor tyrosine kinase) | 0.83 | migration z between -2 and 2; enough cells | 0.97 | 6857 |
| SI (sucrase-isomaltase) | -0.29 | migration z between -2 and 2; enough cells | 0.75 | 5206 |
| SNX13 (sorting nexin 13) | -0.7 | migration z between -2 and 2; enough cells | 0.7 | 5608 |
| DBI (diazepam binding inhibitor, acyl-CoA binding protein) | -0.99 | under 3300 nuclei; migration not judged | 0.62 | 1450 |
| VN1R10P (vomeronasal 1 receptor 10, pseudogene) | -0.34 | migration z between -2 and 2; enough cells | 0.74 | 6250 |
